Assay [1] deals with Spd-2-GFP (Drosophila melanogaster) (UniProt Q9VV79). Put plainly: fluorescence correlation spectroscopy (FCS), count-rate per molecule; living embryos, cytoplasm, nuclear cycles 11-14 at the beginning of S-phase, 25 C; CPM of Spd-2-GFP compared with monomeric GFP, and between embryos with only Spd-2-GFP and embryos with one copy of Spd-2-GFP and one of the endogenous gene.
The target in assay [2] is T1, endogenous unlabelled Spd-2 (Drosophila melanogaster (endogenous in embryos)) (UniProt Q9VV79).
T1 sequence: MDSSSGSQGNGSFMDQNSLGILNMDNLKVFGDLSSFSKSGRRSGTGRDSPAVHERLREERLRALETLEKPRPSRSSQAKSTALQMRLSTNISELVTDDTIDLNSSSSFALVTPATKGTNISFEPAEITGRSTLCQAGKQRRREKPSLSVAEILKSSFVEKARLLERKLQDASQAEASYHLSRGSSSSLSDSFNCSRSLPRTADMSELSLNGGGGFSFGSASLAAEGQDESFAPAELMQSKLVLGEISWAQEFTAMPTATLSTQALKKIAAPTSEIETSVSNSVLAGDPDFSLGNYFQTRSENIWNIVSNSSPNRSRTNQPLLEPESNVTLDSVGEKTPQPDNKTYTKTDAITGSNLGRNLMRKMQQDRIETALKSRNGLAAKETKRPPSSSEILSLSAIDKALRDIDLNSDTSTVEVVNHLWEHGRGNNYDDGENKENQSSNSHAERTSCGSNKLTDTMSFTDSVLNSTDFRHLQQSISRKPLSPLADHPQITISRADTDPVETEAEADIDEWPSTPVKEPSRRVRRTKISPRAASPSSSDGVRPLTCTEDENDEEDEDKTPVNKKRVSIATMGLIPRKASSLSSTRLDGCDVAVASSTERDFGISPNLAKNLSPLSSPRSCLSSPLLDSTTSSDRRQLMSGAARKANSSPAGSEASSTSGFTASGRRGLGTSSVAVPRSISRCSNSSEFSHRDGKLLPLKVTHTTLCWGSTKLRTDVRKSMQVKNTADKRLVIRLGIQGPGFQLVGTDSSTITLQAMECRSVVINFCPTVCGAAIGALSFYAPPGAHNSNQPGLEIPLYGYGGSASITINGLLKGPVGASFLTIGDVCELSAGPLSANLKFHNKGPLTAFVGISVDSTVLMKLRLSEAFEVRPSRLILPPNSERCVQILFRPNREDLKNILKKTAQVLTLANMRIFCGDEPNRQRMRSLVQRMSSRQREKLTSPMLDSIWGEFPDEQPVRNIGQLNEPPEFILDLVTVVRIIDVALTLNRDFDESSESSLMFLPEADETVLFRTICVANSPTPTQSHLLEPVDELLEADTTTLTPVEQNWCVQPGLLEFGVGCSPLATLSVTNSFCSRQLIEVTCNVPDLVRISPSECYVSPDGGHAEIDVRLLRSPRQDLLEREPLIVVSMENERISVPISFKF
The assay is described as above.

Results are given in words; binding and its absence hold for the method and conditions named. Sequences can lack the tags named with a protein.

B1: Spd-2-GFP (protein, UniProt Q9VV79 1-1146)
chain: MDSSSGSQGNGSFMDQNSLGILNMDNLKVFGDLSSFSKSGRRSGTGRDSPAVHERLREERLRALETLEKPRPSRSSQAKSTALQMRLSTNISELVTDDTIDLNSSSSFALVTPATKGTNISFEPAEITGRSTLCQAGKQRRREKPSLSVAEILKSSFVEKARLLERKLQDASQAEASYHLSRGSSSSLSDSFNCSRSLPRTADMSELSLNGGGGFSFGSASLAAEGQDESFAPAELMQSKLVLGEISWAQEFTAMPTATLSTQALKKIAAPTSEIETSVSNSVLAGDPDFSLGNYFQTRSENIWNIVSNSSPNRSRTNQPLLEPESNVTLDSVGEKTPQPDNKTYTKTDAITGSNLGRNLMRKMQQDRIETALKSRNGLAAKETKRPPSSSEILSLSAIDKALRDIDLNSDTSTVEVVNHLWEHGRGNNYDDGENKENQSSNSHAERTSCGSNKLTDTMSFTDSVLNSTDFRHLQQSISRKPLSPLADHPQITISRADTDPVETEAEADIDEWPSTPVKEPSRRVRRTKISPRAASPSSSDGVRPLTCTEDENDEEDEDKTPVNKKRVSIATMGLIPRKASSLSSTRLDGCDVAVASSTERDFGISPNLAKNLSPLSSPRSCLSSPLLDSTTSSDRRQLMSGAARKANSSPAGSEASSTSGFTASGRRGLGTSSVAVPRSISRCSNSSEFSHRDGKLLPLKVTHTTLCWGSTKLRTDVRKSMQVKNTADKRLVIRLGIQGPGFQLVGTDSSTITLQAMECRSVVINFCPTVCGAAIGALSFYAPPGAHNSNQPGLEIPLYGYGGSASITINGLLKGPVGASFLTIGDVCELSAGPLSANLKFHNKGPLTAFVGISVDSTVLMKLRLSEAFEVRPSRLILPPNSERCVQILFRPNREDLKNILKKTAQVLTLANMRIFCGDEPNRQRMRSLVQRMSSRQREKLTSPMLDSIWGEFPDEQPVRNIGQLNEPPEFILDLVTVVRIIDVALTLNRDFDESSESSLMFLPEADETVLFRTICVANSPTPTQSHLLEPVDELLEADTTTLTPVEQNWCVQPGLLEFGVGCSPLATLSVTNSFCSRQLIEVTCNVPDLVRISPSECYVSPDGGHAEIDVRLLRSPRQDLLEREPLIVVSMENERISVPISFKF
B1: the binding entry in assay [1] and in assay [2] was “no binding” each time.

For the origin of these results see publication PMC6733597.
